{"source": "PubChem BioAssay AID1259308, NCATS, 2017", "purpose": "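Candidate targets for better recombinant protein yield in mammalian cells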 (primary screen)", "cell system": "human HEK293 embryonic kidney cells stably expressing firefly luciferase (HEK-CMV-Luc2-Hygro)", "reagent": "single siRNA against human genes, 0.8 pmol siRNA per well", "duration": "72 h", "measurement": "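Luciferase light (ONE-Glo) measured on one replicate plate set and viability (CellTiter-Glo) on the other, scaled to a negative control siRNA, with robust z-scores and luciferase per cell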", "scale": "total luciferase, z-score and total luciferase, % of control: higher = more reporter protein produced", "active means": "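Active when the median/MAD z-score for overall luciferase is greater than 3; a gene was taken forward for validation with new siRNAs if at least two of its three siRNAs passed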", "calls": "active = raised luciferase; inactive = no rise", "note": "This is an unselected part of about 59,000 reagents. About 1,510 of all reagents (2.6%) count as active. 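Calls use total luciferase alone and ignore viability, so some active siRNAs may act by altering cell number.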 Unmarked entries are inactive. The numbers tell different reagents against one gene apart. Further read-outs or replicates are left out here."}
{"target gene": "IRAK3", "siRNA no.": 1, "total luciferase, z-score": -0.555, "total luciferase, % of control": 70.9}
{"target gene": "IRAK3", "siRNA no.": 2, "total luciferase, z-score": -0.138, "total luciferase, % of control": 79.1}
{"target gene": "IRAK3", "siRNA no.": 3, "total luciferase, z-score": 0.0991, "total luciferase, % of control": 83.9}
{"target gene": "TMPRSS11B", "siRNA no.": 1, "total luciferase, z-score": 1.65, "total luciferase, % of control": 115}
{"target gene": "TMPRSS11B", "siRNA no.": 2, "total luciferase, z-score": -0.0593, "total luciferase, % of control": 80.7}
{"target gene": "TMPRSS11B", "siRNA no.": 3, "total luciferase, z-score": 0.468, "total luciferase, % of control": 91.2}
{"target gene": "LUZP4", "siRNA no.": 1, "total luciferase, z-score": 0.664, "total luciferase, % of control": 95.1}
{"target gene": "LUZP4", "siRNA no.": 2, "total luciferase, z-score": 0.283, "total luciferase, % of control": 87.5}
{"target gene": "LUZP4", "siRNA no.": 3, "total luciferase, z-score": 0.35, "total luciferase, % of control": 88.9}
{"target gene": "RTL6", "siRNA no.": 1, "total luciferase, z-score": 1.49, "total luciferase, % of control": 112}
{"target gene": "RTL6", "siRNA no.": 2, "total luciferase, z-score": 0.112, "total luciferase, % of control": 84.1}
{"target gene": "RTL6", "siRNA no.": 3, "total luciferase, z-score": 1.66, "total luciferase, % of control": 115}
{"target gene": "FN1", "siRNA no.": 1, "total luciferase, z-score": 1.65, "total luciferase, % of control": 115}
{"target gene": "FN1", "siRNA no.": 2, "total luciferase, z-score": -0.0316, "total luciferase, % of control": 81.3}
{"target gene": "FN1", "siRNA no.": 3, "total luciferase, z-score": 0.202, "total luciferase, % of control": 85.9}
{"target gene": "MYORG", "siRNA no.": 1, "total luciferase, z-score": 1.67, "total luciferase, % of control": 115}
{"target gene": "MYORG", "siRNA no.": 2, "total luciferase, z-score": 2.02, "total luciferase, % of control": 122}
{"target gene": "MYORG", "siRNA no.": 3, "total luciferase, z-score": -0.685, "total luciferase, % of control": 68.3}

Limited to “total luciferase, % of control” (2 entries from above):
FN1 #1	115
FN1 #2	81.3

The results go on.
{"target gene": "NANS", "siRNA no.": 1, "total luciferase, z-score": -2.05, "total luciferase, % of control": 41.2}
{"target gene": "NANS", "siRNA no.": 2, "total luciferase, z-score": 0.316, "total luciferase, % of control": 88.2}
{"target gene": "NANS", "siRNA no.": 3, "total luciferase, z-score": 0.781, "total luciferase, % of control": 97.4}
{"target gene": "LHX2", "siRNA no.": 1, "total luciferase, z-score": -1.08, "total luciferase, % of control": 60.5}
{"target gene": "LHX2", "siRNA no.": 2, "total luciferase, z-score": 1.7, "total luciferase, % of control": 116}
{"target gene": "LHX2", "siRNA no.": 3, "total luciferase, z-score": -0.664, "total luciferase, % of control": 68.7}
{"target gene": "ATP6V1C2", "siRNA no.": 1, "total luciferase, z-score": 0.193, "total luciferase, % of control": 85.7}
{"target gene": "ATP6V1C2", "siRNA no.": 2, "total luciferase, z-score": -0.429, "total luciferase, % of control": 73.4}
{"target gene": "ATP6V1C2", "siRNA no.": 3, "total luciferase, z-score": -1.46, "total luciferase, % of control": 52.8}
{"target gene": "OR10Q1", "siRNA no.": 1, "total luciferase, z-score": "3.01 (active)", "total luciferase, % of control": 142}
{"target gene": "OR10Q1", "siRNA no.": 2, "total luciferase, z-score": -2.51, "total luciferase, % of control": 32}
{"target gene": "OR10Q1", "siRNA no.": 3, "total luciferase, z-score": 1.77, "total luciferase, % of control": 117}
{"target gene": "FAS", "siRNA no.": 1, "total luciferase, z-score": 0.0766, "total luciferase, % of control": 83.4}
{"target gene": "FAS", "siRNA no.": 2, "total luciferase, z-score": -0.592, "total luciferase, % of control": 70.1}
{"target gene": "FAS", "siRNA no.": 3, "total luciferase, z-score": -1.38, "total luciferase, % of control": 54.4}
